Source: publication PMC9578707
No constants are given. Whether binding was seen depends on the method and setting.

Protein sequences, listed by entry. Tags and fused reporters are not part of them. Residues count along the entry.
UniProt P10586, residues 30-1263: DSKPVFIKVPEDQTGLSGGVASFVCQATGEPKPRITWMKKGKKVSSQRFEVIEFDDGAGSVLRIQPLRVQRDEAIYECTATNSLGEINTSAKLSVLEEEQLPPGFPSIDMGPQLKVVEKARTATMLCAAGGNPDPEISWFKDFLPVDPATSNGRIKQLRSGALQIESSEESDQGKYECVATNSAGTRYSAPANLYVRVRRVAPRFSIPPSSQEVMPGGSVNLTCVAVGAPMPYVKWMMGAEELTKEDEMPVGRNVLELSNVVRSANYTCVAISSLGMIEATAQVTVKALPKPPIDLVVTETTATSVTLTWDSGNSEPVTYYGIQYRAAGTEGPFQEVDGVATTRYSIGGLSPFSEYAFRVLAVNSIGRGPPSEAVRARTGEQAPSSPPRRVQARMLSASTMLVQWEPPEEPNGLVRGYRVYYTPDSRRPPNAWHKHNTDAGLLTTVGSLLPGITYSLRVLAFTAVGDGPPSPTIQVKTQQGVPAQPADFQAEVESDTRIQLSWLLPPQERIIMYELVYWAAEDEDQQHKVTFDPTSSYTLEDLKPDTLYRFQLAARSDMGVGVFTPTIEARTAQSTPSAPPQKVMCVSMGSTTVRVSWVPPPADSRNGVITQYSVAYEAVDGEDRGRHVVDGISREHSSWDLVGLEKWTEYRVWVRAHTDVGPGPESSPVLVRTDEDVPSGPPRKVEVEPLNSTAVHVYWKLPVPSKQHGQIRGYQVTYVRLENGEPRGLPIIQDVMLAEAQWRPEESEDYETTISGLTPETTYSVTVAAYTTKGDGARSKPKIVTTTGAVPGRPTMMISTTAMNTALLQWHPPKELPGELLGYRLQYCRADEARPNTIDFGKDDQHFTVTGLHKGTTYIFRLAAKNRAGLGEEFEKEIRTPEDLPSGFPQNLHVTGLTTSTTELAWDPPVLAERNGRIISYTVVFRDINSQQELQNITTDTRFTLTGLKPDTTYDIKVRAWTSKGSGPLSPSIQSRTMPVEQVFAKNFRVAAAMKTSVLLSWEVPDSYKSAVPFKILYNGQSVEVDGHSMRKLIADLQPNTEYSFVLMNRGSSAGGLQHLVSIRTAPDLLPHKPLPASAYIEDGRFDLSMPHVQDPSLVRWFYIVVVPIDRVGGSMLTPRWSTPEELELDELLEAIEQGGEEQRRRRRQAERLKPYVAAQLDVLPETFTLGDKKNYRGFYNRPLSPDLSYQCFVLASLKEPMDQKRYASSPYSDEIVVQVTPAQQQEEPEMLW

Columns and labels:
Assay in all cases: SPR; Biacore T100; biotinylated receptor ECD or hit protein captured on a streptavidin chip (~100-200 RU), non-biotinylated secreted ligand as analyte in twofold dilutions; HBS-P+ buffer; 1:1 Langmuir model or equilibrium fit; both purified
[1] = target: T1, PTPRK ECD (human) (UniProt Q15262)
T1 sequence (chain, biotin where captured on the streptavidin chip): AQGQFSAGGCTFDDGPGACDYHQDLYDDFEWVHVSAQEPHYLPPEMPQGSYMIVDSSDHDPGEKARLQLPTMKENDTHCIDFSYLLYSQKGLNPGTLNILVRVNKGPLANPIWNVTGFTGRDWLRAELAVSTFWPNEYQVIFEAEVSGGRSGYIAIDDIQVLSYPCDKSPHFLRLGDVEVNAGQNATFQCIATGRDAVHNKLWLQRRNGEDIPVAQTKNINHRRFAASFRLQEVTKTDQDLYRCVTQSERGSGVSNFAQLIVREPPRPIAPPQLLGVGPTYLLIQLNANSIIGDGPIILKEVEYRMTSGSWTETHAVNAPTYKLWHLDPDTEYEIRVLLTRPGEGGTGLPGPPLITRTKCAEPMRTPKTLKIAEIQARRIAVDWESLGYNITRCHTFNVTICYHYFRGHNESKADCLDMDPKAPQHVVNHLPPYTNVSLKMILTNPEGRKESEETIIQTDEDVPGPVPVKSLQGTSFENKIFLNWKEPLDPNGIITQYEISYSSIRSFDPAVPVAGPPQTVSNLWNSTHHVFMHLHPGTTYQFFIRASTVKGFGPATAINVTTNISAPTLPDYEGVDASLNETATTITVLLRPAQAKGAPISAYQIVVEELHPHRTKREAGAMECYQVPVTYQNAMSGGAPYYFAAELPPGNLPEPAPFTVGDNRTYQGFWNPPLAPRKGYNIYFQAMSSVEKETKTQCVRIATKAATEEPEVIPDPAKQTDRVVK

[2] = target: PTPRF ECD (human) (UniProt P10586)
[3] = target: T2, PTPRM ECD (human) (UniProt P28827)
T2 sequence (chain, biotin where captured on the streptavidin chip): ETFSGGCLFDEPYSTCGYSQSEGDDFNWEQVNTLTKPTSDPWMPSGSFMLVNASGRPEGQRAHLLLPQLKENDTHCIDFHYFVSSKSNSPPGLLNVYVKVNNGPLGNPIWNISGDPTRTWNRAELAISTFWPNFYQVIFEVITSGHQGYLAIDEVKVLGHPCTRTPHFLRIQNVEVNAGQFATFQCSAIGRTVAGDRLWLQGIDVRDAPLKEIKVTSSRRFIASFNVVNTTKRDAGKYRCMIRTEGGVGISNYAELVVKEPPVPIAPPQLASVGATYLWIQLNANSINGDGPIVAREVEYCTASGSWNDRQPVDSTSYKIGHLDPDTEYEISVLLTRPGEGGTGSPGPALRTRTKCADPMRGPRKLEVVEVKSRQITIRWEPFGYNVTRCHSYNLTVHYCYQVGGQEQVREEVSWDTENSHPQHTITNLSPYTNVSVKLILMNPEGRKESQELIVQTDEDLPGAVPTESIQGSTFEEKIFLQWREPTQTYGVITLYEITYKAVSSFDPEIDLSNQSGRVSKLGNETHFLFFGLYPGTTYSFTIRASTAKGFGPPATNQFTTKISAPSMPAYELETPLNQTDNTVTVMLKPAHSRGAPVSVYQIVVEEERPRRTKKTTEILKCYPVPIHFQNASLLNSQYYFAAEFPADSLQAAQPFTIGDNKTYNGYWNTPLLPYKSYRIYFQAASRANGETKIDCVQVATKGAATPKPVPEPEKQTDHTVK

[4] = target: T3, PTPRT ECD (human) (UniProt O14522)
T3 sequence (chain, biotin where captured on the streptavidin chip): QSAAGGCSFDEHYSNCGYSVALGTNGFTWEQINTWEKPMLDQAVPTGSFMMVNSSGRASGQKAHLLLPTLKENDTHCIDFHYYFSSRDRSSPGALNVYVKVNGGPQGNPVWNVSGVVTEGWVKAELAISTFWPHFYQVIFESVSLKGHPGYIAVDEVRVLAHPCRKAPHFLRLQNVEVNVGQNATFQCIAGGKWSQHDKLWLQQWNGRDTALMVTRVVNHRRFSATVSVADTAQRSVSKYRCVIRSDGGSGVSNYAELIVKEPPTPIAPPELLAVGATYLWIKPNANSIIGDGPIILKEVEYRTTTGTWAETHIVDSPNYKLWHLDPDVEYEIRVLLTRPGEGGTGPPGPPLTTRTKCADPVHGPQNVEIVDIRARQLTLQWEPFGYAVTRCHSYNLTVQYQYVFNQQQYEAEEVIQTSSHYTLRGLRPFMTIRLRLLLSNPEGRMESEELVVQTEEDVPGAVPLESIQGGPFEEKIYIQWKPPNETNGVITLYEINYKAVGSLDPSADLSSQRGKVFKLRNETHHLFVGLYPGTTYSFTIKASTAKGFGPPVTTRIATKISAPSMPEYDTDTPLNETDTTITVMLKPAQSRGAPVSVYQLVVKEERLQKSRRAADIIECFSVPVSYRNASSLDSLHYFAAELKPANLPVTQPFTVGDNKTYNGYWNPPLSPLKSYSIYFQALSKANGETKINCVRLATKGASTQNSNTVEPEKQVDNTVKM

Measured: binding

B1: Osteocrin (ligand, UniProt P61366 28-133)
chain: VDVTTTEAFDSGVIDVQSTPTVREEKSATDLTAKLLLLDELVSLENDVIETKKKRSFSGFGSPLDRLSAGSVDHKGKQRKVVDHPKRRFGIPMDRIGRNRLSNSRG
modifications: biotin (biotinylated in vitro with BirA) where used on beads
no binding: all assays above
